What all share (details): 10 µM; pre-incubation: 30-90 min
The test system of test [1] is Danio rerio larvae (5 dpf, TLF). In words: OMR-Perf (SSMD vs DMSO vehicle); higher = higher than vehicle (e.g. higher dark-flash O-bend response probability, or better optomotor performance).
Test [2] has the same test system. Briefly: Prob-Test (SSMD vs DMSO vehicle); higher = higher than vehicle (e.g. higher dark-flash O-bend response probability, or better optomotor performance).
Test [3] shares this test system. Briefly: Prob-Naive (SSMD vs DMSO vehicle); higher = higher than vehicle (e.g. higher dark-flash O-bend response probability, or better optomotor performance).
For test [4] the test system is unchanged. In words: Prob-Train (SSMD vs DMSO vehicle); higher = higher than vehicle (e.g. higher dark-flash O-bend response probability, or better optomotor performance).

Some of the results follow. Repeats in this data set agree poorly, so a single value says little.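 Free-swimming zebrafish larvae were scored for O-bend response probability to dark flashes (naive: first five; training: remaining flashes of four 60-flash blocks; test: later 60-flash block) and for turning toward alternating leftward/rightward LED motion (OMR). Six treated larvae were compared with sixty 0.1% DMSO controls; |SSMD|≥2 defined a hit.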

As to `O=C(CCCN1CCC(O)(c2ccc(Cl)cc2)CC1)c1ccc(F)cc1` [Haloperidol], in test [1], the OMR-Perf is -0.725. The Prob-Test in test [2] was -1.37. Moreover, in test [3], the Prob-Naive was 0.375. The Prob-Train in test [4] was 0.19.
The like results for `CN(C)CCc1c[nH]c2ccc(Cn3cncn3)cc12.O=C(O)c1ccccc1` [Rizatriptan Benzoate] were, in that order, 0.399, 0.31, 0.511 and 0.552.
On the same counts, the results for `COCCCOc1cc(C[C@@H](C[C@H](N)[C@@H](O)C[C@H](C(=O)NCC(C)(C)C(N)=O)C(C)C)C(C)C)ccc1OC.COCCCOc1cc(C[C@@H](C[C@H](N)[C@@H](O)C[C@H](C(=O)NCC(C)(C)C(N)=O)C(C)C)C(C)C)ccc1OC.O=C(O)/C=C/C(=O)O` [Aliskiren Hemifumarate] are -0.203, -0.364, -0.0555 and 0.282.
In turn, `CC1(C)[C@@H](O[C@H]2O[C@H](C(=O)O)[C@@H](O)[C@H](O)[C@@H]2O[C@@H]2O[C@H](C(=O)O)[C@@H](O)[C@H](O)[C@H]2O)CC[C@@]2(C)[C@H]3C(=O)C=C4[C@@H]5C[C@@](C)(C(=O)O)CC[C@]5(C)CC[C@@]4(C)[C@]3(C)CC[C@@H]12.N` [Ammonium Glycyrrhizinate] registered an OMR-Perf in test [1] of 0.618. Also, in test [2], the Prob-Test is -0.358. In test [3], this compound displayed a Prob-Naive of 0.47. For the same compound, the Prob-Train in test [4] was 0.0903.
The like results for `CCOC(=O)C1=C[C@@H](OC(CC)CC)[C@H](NC(C)=O)[C@@H](N)C1.O=P(=O)OO.[HH]` [Oseltamivir phosphate] were, in that order, -0.128, -0.338, 0.478 and 0.243.
In test [1], `C=CC[N+]1([C@H]2C[C@H]3[C@@H]4CC[C@H]5C[C@H](O)[C@@H](N6CCOCC6)C[C@]5(C)[C@@H]4CC[C@]3(C)[C@@H]2OC(C)=O)CCCC1.[Br-]` [Rocuronium Bromide] came in with an OMR-Perf of 0.463. Also, the Prob-Test in test [2] is 0.436. Besides, in test [3], the Prob-Naive came to 0.357. Besides, the Prob-Train in test [4] is -0.428.

These data come from the supplement of paper PMC10727501.
